For 26 targets, NP40-soluble protein abundance results are on record in the supplement of paper PMC6411743.

Amino acid sequences for entries named in this document (tags omitted). A change or cut given only in a name is not applied to a line headed by its entry.
UniProt Q8N8A2: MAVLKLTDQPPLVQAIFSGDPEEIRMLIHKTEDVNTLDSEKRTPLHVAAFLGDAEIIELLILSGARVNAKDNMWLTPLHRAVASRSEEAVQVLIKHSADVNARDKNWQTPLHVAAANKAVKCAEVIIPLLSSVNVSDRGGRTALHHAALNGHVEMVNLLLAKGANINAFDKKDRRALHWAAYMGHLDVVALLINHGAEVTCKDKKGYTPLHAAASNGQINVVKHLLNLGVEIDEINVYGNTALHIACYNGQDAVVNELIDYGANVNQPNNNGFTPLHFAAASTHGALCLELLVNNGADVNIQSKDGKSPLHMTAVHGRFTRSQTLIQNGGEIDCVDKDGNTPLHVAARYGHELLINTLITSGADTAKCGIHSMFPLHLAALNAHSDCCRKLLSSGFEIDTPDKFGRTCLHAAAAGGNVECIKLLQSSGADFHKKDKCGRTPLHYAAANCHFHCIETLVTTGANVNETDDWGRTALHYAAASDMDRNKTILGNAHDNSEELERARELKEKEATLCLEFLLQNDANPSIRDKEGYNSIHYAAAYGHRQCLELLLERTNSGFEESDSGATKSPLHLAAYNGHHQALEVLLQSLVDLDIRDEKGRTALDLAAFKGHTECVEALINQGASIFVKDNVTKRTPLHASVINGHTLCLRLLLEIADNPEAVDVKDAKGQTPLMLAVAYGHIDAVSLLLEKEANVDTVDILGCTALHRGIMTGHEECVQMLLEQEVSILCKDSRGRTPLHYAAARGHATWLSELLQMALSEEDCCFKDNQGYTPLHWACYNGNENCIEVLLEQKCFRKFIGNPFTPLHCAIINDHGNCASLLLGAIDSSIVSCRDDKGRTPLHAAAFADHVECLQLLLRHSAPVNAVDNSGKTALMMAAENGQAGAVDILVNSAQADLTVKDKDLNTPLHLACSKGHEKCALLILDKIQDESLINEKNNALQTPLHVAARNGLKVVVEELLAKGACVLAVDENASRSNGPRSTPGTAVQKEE
UniProt Q8N680: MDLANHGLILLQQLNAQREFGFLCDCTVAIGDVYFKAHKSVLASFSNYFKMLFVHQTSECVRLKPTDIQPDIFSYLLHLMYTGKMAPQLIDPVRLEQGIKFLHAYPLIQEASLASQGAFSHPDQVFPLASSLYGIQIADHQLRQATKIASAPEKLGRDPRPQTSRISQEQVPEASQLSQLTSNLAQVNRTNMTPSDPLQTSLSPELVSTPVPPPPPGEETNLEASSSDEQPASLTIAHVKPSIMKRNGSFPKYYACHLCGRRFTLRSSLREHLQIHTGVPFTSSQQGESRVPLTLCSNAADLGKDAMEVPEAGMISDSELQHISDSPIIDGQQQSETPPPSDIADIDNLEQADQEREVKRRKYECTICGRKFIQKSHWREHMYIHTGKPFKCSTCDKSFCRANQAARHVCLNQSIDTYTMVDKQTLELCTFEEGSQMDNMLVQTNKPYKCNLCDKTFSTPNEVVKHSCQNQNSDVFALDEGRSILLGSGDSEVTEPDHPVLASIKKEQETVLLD
UniProt Q7Z6I8: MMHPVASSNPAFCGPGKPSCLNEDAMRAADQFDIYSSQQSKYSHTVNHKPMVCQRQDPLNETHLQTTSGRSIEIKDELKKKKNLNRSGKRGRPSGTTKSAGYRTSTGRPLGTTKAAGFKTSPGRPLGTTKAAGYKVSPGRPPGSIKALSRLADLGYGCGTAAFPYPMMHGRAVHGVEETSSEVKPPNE
UniProt Q8N684: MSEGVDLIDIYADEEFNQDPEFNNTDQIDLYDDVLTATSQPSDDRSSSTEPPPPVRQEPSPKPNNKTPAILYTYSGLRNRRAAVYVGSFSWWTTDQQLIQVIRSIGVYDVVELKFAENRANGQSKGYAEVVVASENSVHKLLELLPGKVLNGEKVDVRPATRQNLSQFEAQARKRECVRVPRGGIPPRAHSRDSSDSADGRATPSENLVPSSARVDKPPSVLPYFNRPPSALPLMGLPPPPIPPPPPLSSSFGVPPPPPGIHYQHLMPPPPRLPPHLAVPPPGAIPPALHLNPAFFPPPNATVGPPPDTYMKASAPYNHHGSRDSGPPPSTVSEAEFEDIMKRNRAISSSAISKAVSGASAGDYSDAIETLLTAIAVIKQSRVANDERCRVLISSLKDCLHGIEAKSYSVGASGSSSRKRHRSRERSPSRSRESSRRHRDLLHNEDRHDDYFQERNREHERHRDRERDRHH
UniProt Q8N4S0: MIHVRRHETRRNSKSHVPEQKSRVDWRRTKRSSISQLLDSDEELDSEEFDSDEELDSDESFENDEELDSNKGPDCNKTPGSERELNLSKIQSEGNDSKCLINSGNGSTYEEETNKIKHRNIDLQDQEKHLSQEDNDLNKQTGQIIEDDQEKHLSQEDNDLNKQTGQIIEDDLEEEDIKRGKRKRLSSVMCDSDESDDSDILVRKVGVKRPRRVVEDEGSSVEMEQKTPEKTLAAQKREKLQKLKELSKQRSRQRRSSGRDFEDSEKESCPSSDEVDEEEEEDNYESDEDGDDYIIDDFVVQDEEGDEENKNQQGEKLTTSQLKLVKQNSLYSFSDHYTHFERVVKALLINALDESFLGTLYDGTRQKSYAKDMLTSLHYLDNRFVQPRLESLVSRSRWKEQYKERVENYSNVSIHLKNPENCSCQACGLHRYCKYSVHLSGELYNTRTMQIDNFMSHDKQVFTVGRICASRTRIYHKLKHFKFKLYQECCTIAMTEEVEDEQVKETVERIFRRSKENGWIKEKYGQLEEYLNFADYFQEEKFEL
UniProt Q8IWE4: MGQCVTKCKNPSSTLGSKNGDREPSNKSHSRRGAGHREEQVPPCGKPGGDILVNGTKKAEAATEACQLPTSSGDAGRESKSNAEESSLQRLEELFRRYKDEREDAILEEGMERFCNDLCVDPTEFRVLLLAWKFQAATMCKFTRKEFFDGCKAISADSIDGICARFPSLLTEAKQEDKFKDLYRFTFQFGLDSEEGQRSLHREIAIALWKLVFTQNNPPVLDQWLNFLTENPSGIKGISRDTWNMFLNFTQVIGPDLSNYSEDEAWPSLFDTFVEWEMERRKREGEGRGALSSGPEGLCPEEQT
UniProt Q86TN4: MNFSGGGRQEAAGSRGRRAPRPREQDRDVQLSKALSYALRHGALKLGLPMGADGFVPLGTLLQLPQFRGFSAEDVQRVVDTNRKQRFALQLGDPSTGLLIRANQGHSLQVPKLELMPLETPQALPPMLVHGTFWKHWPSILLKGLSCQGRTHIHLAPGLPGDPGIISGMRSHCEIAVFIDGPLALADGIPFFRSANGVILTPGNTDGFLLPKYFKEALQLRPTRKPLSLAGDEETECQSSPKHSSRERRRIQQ
UniProt Q8IYH5: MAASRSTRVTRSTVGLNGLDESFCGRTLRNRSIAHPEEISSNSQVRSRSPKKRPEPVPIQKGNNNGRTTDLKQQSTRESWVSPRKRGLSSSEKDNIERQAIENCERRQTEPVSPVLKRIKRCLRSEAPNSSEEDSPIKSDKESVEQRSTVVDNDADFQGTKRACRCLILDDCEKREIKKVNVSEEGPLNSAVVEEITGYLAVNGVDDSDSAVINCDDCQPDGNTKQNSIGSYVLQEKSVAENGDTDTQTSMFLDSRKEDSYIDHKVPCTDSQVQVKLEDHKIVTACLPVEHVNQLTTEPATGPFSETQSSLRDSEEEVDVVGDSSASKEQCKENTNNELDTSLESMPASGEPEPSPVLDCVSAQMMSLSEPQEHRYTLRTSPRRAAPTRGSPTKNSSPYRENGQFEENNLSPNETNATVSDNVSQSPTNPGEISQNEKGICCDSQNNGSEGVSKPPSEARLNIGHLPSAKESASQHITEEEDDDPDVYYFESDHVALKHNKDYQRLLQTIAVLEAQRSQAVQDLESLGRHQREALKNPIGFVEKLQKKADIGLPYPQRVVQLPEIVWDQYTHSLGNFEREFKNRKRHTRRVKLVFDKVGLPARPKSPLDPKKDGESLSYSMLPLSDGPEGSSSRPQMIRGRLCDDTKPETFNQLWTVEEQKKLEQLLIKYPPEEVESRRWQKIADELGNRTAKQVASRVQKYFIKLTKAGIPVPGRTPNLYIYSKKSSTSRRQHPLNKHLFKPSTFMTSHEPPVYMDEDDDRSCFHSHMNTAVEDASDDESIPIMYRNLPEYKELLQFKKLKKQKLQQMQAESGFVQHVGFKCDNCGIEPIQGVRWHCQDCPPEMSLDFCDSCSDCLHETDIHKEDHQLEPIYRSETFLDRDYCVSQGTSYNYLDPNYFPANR
UniProt Q7Z7A1: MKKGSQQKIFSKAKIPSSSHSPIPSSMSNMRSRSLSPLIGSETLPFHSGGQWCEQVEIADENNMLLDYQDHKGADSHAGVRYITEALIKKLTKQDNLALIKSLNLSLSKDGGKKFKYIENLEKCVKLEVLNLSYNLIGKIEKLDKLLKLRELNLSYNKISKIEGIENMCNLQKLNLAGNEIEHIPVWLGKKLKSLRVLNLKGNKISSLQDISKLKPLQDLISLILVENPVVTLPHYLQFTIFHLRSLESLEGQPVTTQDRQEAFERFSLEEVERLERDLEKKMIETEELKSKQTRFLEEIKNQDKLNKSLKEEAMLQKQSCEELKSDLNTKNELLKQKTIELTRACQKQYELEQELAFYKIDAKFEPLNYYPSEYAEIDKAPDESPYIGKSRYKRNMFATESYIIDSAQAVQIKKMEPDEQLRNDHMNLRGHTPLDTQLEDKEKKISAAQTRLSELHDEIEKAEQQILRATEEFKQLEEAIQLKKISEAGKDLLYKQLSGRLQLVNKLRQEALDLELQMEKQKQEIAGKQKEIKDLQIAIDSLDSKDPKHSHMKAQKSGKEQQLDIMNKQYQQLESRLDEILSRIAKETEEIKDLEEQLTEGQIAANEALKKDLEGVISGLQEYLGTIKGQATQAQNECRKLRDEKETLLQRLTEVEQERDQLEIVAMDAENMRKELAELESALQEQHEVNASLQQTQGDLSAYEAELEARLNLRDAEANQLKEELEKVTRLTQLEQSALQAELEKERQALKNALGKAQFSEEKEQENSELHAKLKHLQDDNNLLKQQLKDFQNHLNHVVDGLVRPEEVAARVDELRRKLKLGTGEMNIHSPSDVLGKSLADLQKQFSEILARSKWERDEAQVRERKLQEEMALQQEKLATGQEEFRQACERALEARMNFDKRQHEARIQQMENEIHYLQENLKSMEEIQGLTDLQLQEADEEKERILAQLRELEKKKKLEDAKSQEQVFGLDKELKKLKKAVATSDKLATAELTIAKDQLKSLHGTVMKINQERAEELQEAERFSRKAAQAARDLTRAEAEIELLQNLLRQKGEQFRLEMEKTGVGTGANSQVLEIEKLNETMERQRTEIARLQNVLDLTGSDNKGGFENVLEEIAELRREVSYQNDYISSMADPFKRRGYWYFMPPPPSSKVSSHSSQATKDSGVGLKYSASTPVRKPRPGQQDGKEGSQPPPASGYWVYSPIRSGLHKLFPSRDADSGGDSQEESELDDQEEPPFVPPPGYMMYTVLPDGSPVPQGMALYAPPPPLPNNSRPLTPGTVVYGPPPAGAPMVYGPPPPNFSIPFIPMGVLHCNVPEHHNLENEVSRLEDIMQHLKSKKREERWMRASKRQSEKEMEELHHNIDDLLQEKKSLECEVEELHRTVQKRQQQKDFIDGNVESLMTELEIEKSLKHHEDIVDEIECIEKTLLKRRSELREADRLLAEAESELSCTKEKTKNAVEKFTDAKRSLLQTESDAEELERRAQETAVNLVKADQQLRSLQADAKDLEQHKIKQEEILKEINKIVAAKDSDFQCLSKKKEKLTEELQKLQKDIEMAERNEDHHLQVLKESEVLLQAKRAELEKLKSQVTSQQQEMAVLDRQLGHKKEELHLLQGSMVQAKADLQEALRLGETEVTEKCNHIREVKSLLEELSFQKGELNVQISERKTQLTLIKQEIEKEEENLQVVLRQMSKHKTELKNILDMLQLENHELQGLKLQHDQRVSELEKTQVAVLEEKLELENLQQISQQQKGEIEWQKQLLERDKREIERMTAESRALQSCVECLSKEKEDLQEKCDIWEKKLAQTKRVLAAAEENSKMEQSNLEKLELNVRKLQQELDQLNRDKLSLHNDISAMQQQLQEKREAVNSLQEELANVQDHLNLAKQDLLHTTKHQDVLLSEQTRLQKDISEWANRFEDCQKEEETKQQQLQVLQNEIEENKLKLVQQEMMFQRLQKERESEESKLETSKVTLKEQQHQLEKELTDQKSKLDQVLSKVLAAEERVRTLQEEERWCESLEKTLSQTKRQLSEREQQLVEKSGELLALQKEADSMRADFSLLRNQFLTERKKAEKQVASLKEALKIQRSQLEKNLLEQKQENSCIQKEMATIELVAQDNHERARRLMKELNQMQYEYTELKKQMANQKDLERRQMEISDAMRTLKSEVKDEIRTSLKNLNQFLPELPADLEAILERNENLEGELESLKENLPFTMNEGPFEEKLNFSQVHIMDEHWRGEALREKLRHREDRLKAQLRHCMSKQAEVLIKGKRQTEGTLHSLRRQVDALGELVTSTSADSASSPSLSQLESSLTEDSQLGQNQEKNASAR

± gives the standard deviation of the averaged measurements. The entries are a selection whose mix differs from that of the whole data set.

Compound in this experiment: Nc1ncnc2c1ncn2[C@@H]1O[C@H](COP(=O)(O)OP(=O)(O)NP(=O)(O)O)[C@@H](O)[C@H]1O [adenylyl imidodiphosphate]
Put plainly: NP40-soluble protein abundance relative to vehicle (solubility fold change) (ratio); higher = more soluble protein in presence of AMP-PNP. The conditions noted are these: concentration: 2mM. The method, boiled down: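 Jurkat crude lysate prepared with a Dounce homogeniser was treated at eight concentrations spanning 0.1 to 10 mM, 10 min at room temperature then 3 min at 37 °C. Solubilisation with 0.8% NP40 and benzonase and ultracentrifugation preceded TMT labelling of the supernatant for LC-MS/MS. Fold change against the detergent-processed vehicle was determined per replicate from vsn-normalised intensities, across three independent experiments.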
Consider UniProt Q8N8A2 and related entries, for which the NP40-soluble protein abundance amounted to 0.942 ± 0.091.
To UniProt Q8N4L2 and related entries belongs 0.992 ± 0.045; to ZBTB2 (UniProt Q8N680), 1.01 ± 0.033.
For PRPF39 (UniProt Q86UA1) the value was 1 ± 0.053.
Turning to UniProt Q86UE8-2|Q86UE8-3|J3QLK5, the NP40-soluble protein abundance was determined as 1.02 ± 0.021.
To UniProt Q8N4J0 belongs 0.903 ± 0.043; to C5orf24 (UniProt Q7Z6I8), 1.03 ± 0.051; to UniProt Q86SK9 and related entries, 0.982 ± 0.037.
For UniProt Q8N684 and related entries the value was 1.1 ± 0.055.
For UniProt Q8IUD2 and related entries the value was 1.05 ± 0.081; for UniProt Q8N1K5 and related entries, 0.917 ± 0.047; for HPS6 (UniProt Q86YV9), 0.946 ± 0.011.
On to CCDC82 (UniProt Q8N4S0), for which the NP40-soluble protein abundance turned out to be 1.03 ± 0.044.
For RCOR2 (UniProt Q8IZ40) the value was 1.01 ± 0.081; for UniProt Q8IV53 and related entries, 0.997 ± 0.029.
For DCUN1D3 (UniProt Q8IWE4) the value was 0.978 ± 0.02; for UniProt Q8N5U6 and related entries, 0.977 ± 0.023.
For UniProt Q86X10 and related entries the value was 0.939 ± 0.051; for USP48 (UniProt Q86UV5), 0.966 ± 0.047; for UniProt Q86TN4 and related entries, 1.03 ± 0.022.
On to UniProt Q8IZM8, for which the NP40-soluble protein abundance was 1.05 ± 0.032.
For UniProt Q8IYH5 and related entries the value was 0.981 ± 0.03; for PIAS4 (UniProt Q8N2W9), 0.986 ± 0.035.
To ZNF579 (UniProt Q8NAF0) belongs 1.04 ± 0.091.
To UniProt Q7Z7A1 and related entries belongs 1.01 ± 0.062; to UniProt Q8N4C8 and related entries, 1.1 ± 0.066.
